Measurements as given in PubChem BioAssay AID1347423 (Functional Genomics Laboratory (NCATS/FGL), 2020).
About 210 (0.4%) of roughly 52,000 sequences were called active.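 Rule for the calls: active = gene whose silencing raises cell survival under the drug, median off-target-corrected z-score across its silencing RNAs 2 or more; inactive = the rest.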 This is one part of the list.

assay: Resistance to Poly (ADP-Ribose) Polymerase inhibitor: Gene Identification via Genome-wide siRNA Screen; conditions: mouse BRCA2 R2336H ES cells, olaparib, CellTiter-Glo viability; hits give high values
Method in brief: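 Genome-wide siRNA screen (3 siRNAs/gene, 20 nM) in mouse ES cells carrying hypomorphic BRCA2 R2336H; olaparib 500 nM added 48 h post-transfection, CellTiter-Glo viability 72 h later. Normalized to plate-median negative control; MAD z-scores, gene median, seed-adjusted.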

| Sequence | z-score |
| --- | --- |
| CCCACUUGUGGCAGUGUACTT against Stub1 | inactive: 0.958 |
| GGAAGUCCACAUUGCUGGUTT against Slc2a9 | inactive: 0.695 |
| GGCUGUGAGCAAUUCAUAGTT against Fbxl10 | inactive: -1.6 |
| GGAGGAAGAUGACCUCAUCTT against Tslpr | inactive: -0.315 |
| GCUUUUCCACAUUUUAAGGTT against BC034507 | inactive: -5.8e-05 |
| CCGACUACUUAAGUUUCCGTT against Ppp1r3c | inactive: -0.274 |
| GGAGGUAUGGCGGUGAUUATT against Krt2-39 | inactive: 0.631 |
| GGAUACAUUGAAUCAAUGGTT against Cstad | inactive: -0.482 |
| GGAUGCAUGACACAGACUUTT against Olfr47 | inactive: -1.44 |
| GGAUGUCAAUAGCAUGUGGTT against Gpr126 | inactive: 0.163 |
| GGCCUAAUCUCAGAAGCAUTT against Tead2 | inactive: -0.0375 |
| GGUACAUCCAGCACAUGGATT against Rnf25 | inactive: -2.66 |
| CCAAGGAGACGGAAUACAGTT against Tgfb1 | inactive: -1.23 |
| GGUUUUCAGCUAUCCUUGUTT against 5530601I19Rik | inactive: -0.0919 |
| GGUAAAUAGCUGUCUUGGCTT against Cerk | inactive: 0.226 |
| GCCCAUGUAUUUUUUUCUCTT against Olfr67 | inactive: -0.039 |
| GGUAGCUGUGAUAAAGCAUTT against Pcbd | inactive: 0.658 |
| GGUUCUGUAAAUUCAACUATT against 3110024A21Rik | inactive: -0.0253 |
| GGUCCCUAAAAGGUAAACUTT against Rai1 | inactive: 1 |
| GGAAGAGAAUCAAGAGCCATT against Lrrc10 | inactive: -1.41 |
| GGUAAUUGGUAGGAAGCUUTT against Olfr836 | inactive: -0.704 |
| GGUGGUUUUGAUUAAUGGGTT against Hpn | inactive: -0.386 |

| Sequence | z-score |
| --- | --- |
| GCGCAUCUAUGAAAAAACATT against Cerk | inactive: 1.11 |
| GGCAUCUCUGUACAGGAAGTT against Mst1r | inactive: -0.0726 |
| GGUGUGGAGUACCGGAUAATT against Arhgdia | inactive: -1.42 |
| CGAAACGAGGAACUUUUAATT against 4921513E08Rik | inactive: 0.246 |
| GGAUGCUCUCUUUACUGACTT against Pib5pa | inactive: -0.0139 |
| GAAGACUCUCCAUUGGGUGTT against 1110058A15Rik | inactive: -0.422 |
| GCCCUCAAAUGGCUUGAACTT against 4930506D23Rik | inactive: -0.0921 |
| GGAGGCAGAGAUAACCUUUTT against Sphk1 | inactive: 0.831 |
| GCUCAGAUUUGCUUUAUGATT against Ube2r2 | inactive: 0.64 |
| GGUUUAAUGUUAUAUACGGTT against Olfr606 | inactive: -1.05 |
| CGAUAGCAAAGAACCUUAUTT against Mastl | inactive: 0.96 |
| GGUUGGAUGCUGAAGUAGATT against 6330416L11Rik | inactive: 1.14 |
| GGUGUCUCUCCAGGAUAACTT against Ctrl | inactive: 2.22 |
| GCCACAGUAUAGCACAAAGTT against BC005471 | inactive: -1.43 |
| GGAGGUAUUAUCUGAAUUGTT against Utp14a | inactive: -1.15 |
| CCAAUUGACGGUUUAUGUUTT against Zfp291 | inactive: -1.08 |
| CGAUAAAAUCAUUGUGGGCTT against E130103I17Rik | inactive: 1.22 |
| GGCAUGAGGAUCGUUAGAUTT against Mccc1 | inactive: 1.4 |
| GCCAGGGACUUGCUAUUGATT against Txln | inactive: -0.691 |
| GGUAGGAAAUGUUUCAUGUTT against P4ha3 | inactive: 0.696 |
| GCCAACGGAGUUCCCACUATT against Cited1 | inactive: -0.473 |
| GCCUAUGUUAAAAUACUGGTT against C2a | inactive: 0.234 |

Quoted at random: five records from the list

| Sequence | z-score |
| --- | --- |
| GCCCAUGUAUUUUUUUCUCTT against Olfr67 | inactive: -0.039 |
| GGAGGUAUUAUCUGAAUUGTT against Utp14a | inactive: -1.15 |
| GGUGUGGAGUACCGGAUAATT against Arhgdia | inactive: -1.42 |
| GGAUGUCAAUAGCAUGUGGTT against Gpr126 | inactive: 0.163 |
| GGUAGGAAAUGUUUCAUGUTT against P4ha3 | inactive: 0.696 |

Continued:

| Sequence | z-score |
| --- | --- |
| CGUCCUUAUCCACAACACATT against Sertad3 | inactive: -0.354 |
| GGAAGGAAGCAGAGAGUUATT against Ndel1 | inactive: 1.33 |
| GGGUAGACAGAAAGCCUUUTT against Olfr111 | inactive: -0.573 |
| GGGAGUGAGUUCUGGAGUGTT against Capn2 | inactive: 0.313 |
| GCCUAGGAUAUGUAUUAACTT against Rhbdl7 | inactive: 0.0607 |
| GAUGAAGAGGCAGGCCAAGTT against Nkx2-4 | inactive: 1.41 |
| GGCACUUGUAUAUGAACUATT against Fbxo36 | inactive: 1.1 |
| GGAGAUGUGAAGAUUCAGUTT against BC025105 | inactive: 0.558 |
| GCAGUUGAUGAUAAUGUGATT against 2810458H16Rik | inactive: -0.356 |
| GGAGCUUCGAAAAAAGUUGTT against Pex16 | inactive: 0.927 |
| GCGAGUUGAAGACUGAAGGTT against MGC54896 | inactive: -0.0265 |
| GGUAUUCACUUAAGCAUUUTT against Slco1b2 | inactive: -0.297 |
| GGAAUGUCCAAAGCAUUUATT against Olfr909 | inactive: -0.938 |
| GGUGGAUGUUCGCAUGAUUTT against Ihpk1 | inactive: 0.813 |
| GCUCCAAAUAAGCUUUUUATT against Gabra4 | inactive: 0.137 |
| GGAUGCAUACGACAUAAACTT against Cdh15 | inactive: 0.123 |
| GGUUAGACUCAGCUUCAUGTT against 4921530G04Rik | inactive: -1.11 |
| GGUUCUUAAUGCAUUCCCGTT against Cyp2d9 | inactive: 0.0841 |
| GCGAAUGUUACAUGUCAGUTT against Tdpoz5 | inactive: 0.317 |
| GCAGUGCUCUUAGUAGGACTT against Pfn3 | inactive: 1.33 |
| GCAUCGUUAUCUUUACACUTT against 5730522E02Rik | inactive: 0.225 |
| GGGUGAUCAUUCAUCAGUUTT against 0610006F02Rik | inactive: -0.0728 |
